# Experimental data as given in patent publication US8067458B2, “Alkoxyalkyl-substituted cyclic ketoenols” (Bayer Cropscience AG, priority 2006, dated 2011).
# Some results were stated once for a whole list of compounds, not compound by compound.
# Test system: green peach aphid (Myzus persicae)
# Assay: Myzus test (MYZUPE spray treatment)
# Assay type: in vivo
# Settings: 500 g/ha, Chinese cabbage leaf discs
smiles,measurement,value
CCc1cc(Br)cc(C)c1C1=C(O)C(C)(COC)NC1=O (stereo not shown) [I-a-1],"activity (effect in %, aphids killed)",≥ 80%
